No constants are given. Whether binding was seen depends on the method and setting. Binding seen in cells or lysates may run through a third protein. Some entries that bind do so weakly or less than the wild type.
Molecular target: PRKCSH (UniProt P14314)
Assay: co-IP

By UniProt entry, the sequences of proteins in these tests, tags left out. Residues count along the entry.
UniProt P14314, residues 15-528: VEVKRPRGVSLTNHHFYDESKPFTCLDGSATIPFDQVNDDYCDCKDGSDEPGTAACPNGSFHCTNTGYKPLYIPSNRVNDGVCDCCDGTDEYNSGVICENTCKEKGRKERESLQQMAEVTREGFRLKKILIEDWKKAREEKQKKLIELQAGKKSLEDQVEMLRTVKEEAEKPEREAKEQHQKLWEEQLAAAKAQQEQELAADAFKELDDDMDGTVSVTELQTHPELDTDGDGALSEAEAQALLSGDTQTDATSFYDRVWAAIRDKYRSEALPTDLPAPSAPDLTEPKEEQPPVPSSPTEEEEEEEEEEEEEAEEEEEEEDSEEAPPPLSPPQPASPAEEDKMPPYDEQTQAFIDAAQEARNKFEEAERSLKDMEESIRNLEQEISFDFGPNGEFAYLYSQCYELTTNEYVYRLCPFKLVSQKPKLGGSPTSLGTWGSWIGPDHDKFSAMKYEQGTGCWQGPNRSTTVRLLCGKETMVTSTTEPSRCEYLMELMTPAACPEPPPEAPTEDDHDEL

B1: myoclonin1 (protein, UniProt Q5JVL4 1-640)
chain: MVSNPVHGLPFLPGTSFKDSTKTAFHRSQTLSYRNGYAIVRRPTVGIGGDRLQFNQLSQAELDELASKAPVLTYGQPKQAPPADFIPAHVAFDKKVLKFDAYFQEDVPMSTEEQYRIRQVNIYYYLEDDSMSVIEPVVENSGILQGKLIKRQRLAKNDRGDHYHWKDLNRGINITIYGKTFRVVDCDQFTQVFLESQGIELNPPEKMALDPYTELRKQPLRKYVTPSDFDQLKQFLTFDKQVLRFYAIWDDTDSMYGECRTYIIHYYLMDDTVEIREVHERNDGRDPFPLLMNRQRVPKVLVENAKNFPQCVLEISDQEVLEWYTAKDFIVGKSLTILGRTFFIYDCDPFTRRYYKEKFGITDLPRIDVSKREPPPVKQELPPYNGFGLVEDSAQNCFALIPKAPKKDVIKMLVNDNKVLRYLAVLESPIPEDKDRRFVFSYFLATDMISIFEPPVRNSGIIGGKYLGRTKVVKPYSTVDNPVYYGPSDFFIGAVIEVFGHRFIILDTDEYVLKYMESNAAQYSPEALASIQNHVRKREAPAPEAESKQTEKDPGVQELEALIDTIQKQLKDHSCKDNIREAFQIYDKEASGYVDRDMFFKICESLNVPVDDSLVKELIRMCSHGEGKINYYNFVRAFSN
binding: binds

Reference: publication doi:10.1101/2024.07.01.601633
